Most values lie at the floor of the assay. Slopes are relative: functional sequences can read slightly below zero. A value given as a limit tells only on which side of the number the result lay.

The subject of this series is Saccharomyces cerevisiae PS128 hsf1 delta, HSF1(1-493) fusion. The series can be described thus: growth estimate (transactivation domain function in HSF1 fusion, heat-shock survival) (a.u. (slope of normalised read count over time)); higher = stronger growth at 37°C, i.e. more transactivation activity. Particulars: library: random library. As to the method:
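Random 60-nt DNA library encoding peptides of up to 20 aa, fused to the C-terminus of yeast HSF1 residues 1-493 (C-terminal TAD deleted) and expressed from the native HSF1 promoter on a CEN plasmid in hsf1-deleted S. cerevisiae PS128. Cells were selected at 37°C on -trp 5-FOA plates for 0, 2, 4, 6 and 8 days and amplicons were sequenced. Growth estimate is the slope of a robust linear fit of total-sum-normalised read counts (normalised to the first time point) over time, using at least 2 replicates. Sequences are classed functional (TAD activity) above a threshold of -0.13, set from stop-codon control sequences.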
In the case of LGSGTRGVPRSVWTIHEVDP, the growth estimate is below -0.25.
Under LYGRLR stands below -0.25.
Then RHAWMLLSAEHFTSIATCTV, with below -0.25; and GFVDS, with below -0.25.
Turning to GSQSTERGP, the growth estimate was below -0.25.
Under VFKHHILVP stands below -0.25.
Under CRAVCG stands below -0.25; under TVHTVRGPRIGWTFSKL, below -0.25.
Under APAVSQRAWSL stands below -0.25; under KKGRRTAGAARSDVLV, below -0.25.
Turning to KLGNAGTRTFNGTRLGPGPE, the growth estimate is below -0.25.
QVWEGIKTSGQISLCFIKNQ: the growth estimate was below -0.25.
Consider QNTCSGIIGLGLKTVVNSRR, for which the growth estimate was below -0.25.
Under SIV stands below -0.25; under PVM, below -0.25; under LSPLSHTLGVQWRKRAGVWR, below -0.25.
Under RGLNKGAVSRWKKILRYLSL stands below -0.25.
Then GRINE, with below -0.25; and QRQSATHQREPGLTGSSVFT, with below -0.25.
For the substance VHWISGGSGEGANTDVGFLI, the growth estimate was below -0.25.
Under PCLND stands below -0.25; under PGLHSMDLVARNYGFRATAD, below -0.25; under EMKAISRGTPHHLGHG, below -0.25.
Then EGDNGARVYY, with below -0.25.
Then VSVFAITTQVLGPTSA, with below -0.25.
With VPESSCIYFAR, the growth estimate was below -0.25.
Turning to LKGSLGLALVVFTGATWMVF, the growth estimate was below -0.25.
With RIKGRP, the growth estimate was below -0.25.
Under PGGNHRRDAVPSCSRTAPWI stands below -0.25; under SDGTHMSRYPVSDKEISGYQ, below -0.25.
As for NIGRGKKVGGVRDPPAENTC, the growth estimate was below -0.25.
Then VPPRRNVLAEV, with below -0.25; and GFGAVDRSFRSTCSLA, with below -0.25; and CPSVGRRSRLPCTSSRDQRI, with below -0.25.
Then EPRKRPTV, with below -0.25.
Under CRGPPSTGNGGTALLGFSQP stands below -0.25; under VSERRSVSTVLRMRRRRFVP, below -0.25.
Regarding LIRGPH, the growth estimate is -0.208.
Consider GQVGLLISRFRKLANSEGVA, for which the growth estimate is below -0.25.
Then DEEDGATGL, with below -0.25; and VSN, with below -0.25; and CEGQSRASKEWAGGAPYHVE, with below -0.25.
Then VSSPFSVWDNSVPG, with below -0.25.
Under DRSG stands below -0.25; under ALKPADLRGRLIHRCVVPI, below -0.25.
In the case of PIQVGDQLRFDLTGRVVVLP, the growth estimate was below -0.25.
Under PGPGVSSCISAQCAFESLVI stands below -0.25; under ARTNDTAGSMPQRRVDRCS, below -0.25; under SVVRHPPNCLKRAIVRAFAP, below -0.25.
Take WKGNSLRLRVTCIRQEMRSQ: the growth estimate is below -0.25.
Then ESHAPVIAVMAQLPQSSEPT, with -0.077; and RAQVTGNLVLVCIVTAFPCA, with below -0.25; and RHDRYGLVRFSGGEARCLGN, with below -0.25.
Consider SVPSLAGRTIQAAFIRRSGQ, for which the growth estimate is below -0.25.
Under SHWE stands below -0.25; under TTSAHLLGTTTCFQRFSTRP, below -0.25; under VLFS, below -0.25.
Then PCWTSDMSRG, with below -0.25; and PVSEYCRTPEGPRPPAYRRQ, with below -0.25.
Regarding RWGPTAWNRESYCVRSCGVF, the growth estimate was below -0.25.
Under TYLDDSRRTTGLGHVV stands below -0.25.
Then TQAGVVMGGGLDGSFTNIAY, with below -0.25.
Under HRQEGCDACRTSPPTVCSLG stands below -0.25; under SQLERVNHVLRRLRHALSEC, below -0.25; under SGVGNTLDVAGTNDSSIDAR, below -0.25.
Consider ILCEGSSGLG, for which the growth estimate was below -0.25.
Under RVIEFGPSRR stands below -0.25.
Then EARSPSGDGRALCRRE, with below -0.25; and ANE, with below -0.25; and VSLPGSTPSVARLQTMRMGR, with below -0.25.
SAADFINSCRTRLLSELQAG: the growth estimate was below -0.25.
Under PGIY stands -0.243.
Then LNCVSSFEYSTEDSPRSWH, with -0.0345; and QDYTIR, with below -0.25.
Then RVHKSREGRINRILDCPQDA, with below -0.25.

The values are drawn from the supplement of paper PMC5949888.
